A short description of this test: S16 Schwann cell PMP22 intronic element beta-lactamase assay (AID 624044). Particulars: S16 rat Schwann cells, PMP22 element beta-lactamase FRET, 24 h. An outline of the steps: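 Beta-lactamase reporter under a PMP22 intronic regulatory element in stable S16 rat Schwann cells; 24 h compound exposure. 460 nm blue signal normalized between DMSO (0%) and potassium clavulanate, with 535 nm FRET tracking viability; curves classed by r2 and response.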

The mark [1] stands for this setting: measured here: 460 nm blue channel.
The mark [2] stands for this setting: measured here: 530 nm viability channel.

The list shows a part of the results. Further columns of the screen follow, without active or inactive calls. Most of these compounds were active or inconclusive in the main read-out, so they are no random draw. Words in brackets tell the shape of the fitted curve; partial curves, single points and poor fits give uncertain potencies.

By AC50 is commonly meant the concentration giving half of the maximal activity seen. A high value points to weaker potency. In the case of `O=c1[nH]c(=O)c2[nH]c(=O)[nH]c2[nH]1`, the concentration at half-maximal activity (AC50) is, setting by setting: under setting [1], 14.1 µM [falling, single point]; under setting [2], 2.24 µM [falling, full curve].

In the case of `O=C(O)CCC(=O)Nc1ccc(S(=O)(=O)Nc2nccs2)cc1`, the AC50 reads like this: under setting [1], 10.7 µM [falling, single point]; under setting [2], 12.6 µM [falling, single point].

As for `CC1CCC(C(C)C)C(=O)C1` (stereo unspecified), the AC50 is 25.1 µM [falling, single point] under setting [1] and 25.1 µM [falling, single point] under setting [2].

As to `NC(=O)C(c1ccccc1)(c1ccccc1)[C@@H]1CCN(CCc2ccc3c(c2)CCO3)C1`, the AC50 reads like this: under setting [1], 2.82 µM [falling, full curve]; under setting [2], 1.58 µM [falling, full curve].

On to `CC1CC(O)CC(C)(C)C1` (stereo unspecified), for which the AC50 under setting [1] was 1.58 µM [falling, full curve] and the AC50 under setting [2] is 1.41 µM [falling, full curve].

In the case of `Cc1cccc(C)c1NC(=O)C1CCCCN1C` (stereo unspecified), the AC50 reads like this: under setting [1], 14.1 µM [falling, single point]; under setting [2], 12.6 µM [falling, single point].

For the compound `O=P(O)(O)CP(=O)(O)O`, the half-maximal activity concentration (AC50) under setting [1] was 25.1 µM [falling, single point] and the half-maximal activity concentration (AC50) under setting [2] is 28.2 µM [falling, single point].

Consider `COc1ccc([C@@H]2CC(=O)c3c(O)cc(O[C@H]4O[C@@H](CO[C@H]5O[C@@H](C)[C@@H](O)[C@@H](O)[C@@H]5O)[C@@H](O)[C@@H](O)[C@@H]4O)cc3O2)cc1O`, for which the half-maximal activity concentration (AC50) was 0.00477 µM [falling, full curve, poor fit] under setting [1] and 0.00631 µM [falling, full curve, poor fit] under setting [2].

For the origin of these results see PubChem BioAssay (NCATS).
